Assay results: patent US11576930B2, “Methods and compositions for treatment of multi-drug resistant tumors” (priority 2017, dated 2023)
At least one compound was matched to its structure with a doubt left.

Key:
[1] = system: CNE1; experiment: Cell morphology and MTT cytotoxicity of MXF alone; format: cell-based, human; conditions: 3 g/mL MXF
[2] = system: HCC97L cells; experiment: Cell morphology and MTT cytotoxicity of agent alone; format: cell-based, human; conditions: 3 g/mL MXF
Procedure: (§1) Then, HCC97L (3×10^3 well^−1), Hep3B (4×10^3 well^−1), PLC (4×10^3 well^−1), CNE1 (1.75×10^3 well^−1), CNE2 (3.5×10^3 well^−1), HONE1 (2×10^3 well^−1) and SUNE1 (2×10^3 well^−1) were seeded in 96-well plates ([…]) and allowed to attach for 24 h. After that, human liver cancer cell lines were treated with 3 chemotherapeutic drugs separately at different concentrations (as indicated in FIG. 2) in the presence of the anti-mycoplasma antibiotics for 48 h. […] In the P37-ANXA2 interruption experiment, A2PP was dissolved in DMSO and HCC97L cells were pretreated with A2PP (as indicated in FIG. 3) 24 h before GEM or MX treatment. […] (5 mg/ml final concentration; MP Biomedicals, LLC, CA, USA) was added to each well. After 4 h incubation at 37° C., the medium was removed and 100 μL/well DMSO (GBCBIO Technologies, Guangzhou, China) was added. The plates were mixed by a thermomixer for 5 min at RT. Absorbance measures were made in a microplate reader (iMark, Bio-Rad Laboratories, CA, USA) at 570/655 nm.

[3] = system: CNE2; experiment: Cell morphology and MTT cytotoxicity of MXF alone; format: cell-based, human; conditions: 3 g/mL MXF
[4] = system: mycoplasma; experiment: Mycoplasma detection using quantitative real-time PCR in cancer cell lines; format: cell-based
Procedure: Total DNA was extracted from 5×10^5 cells from each group by digestion at 70° C. for 10 min in 0.5% Tween-20, 50 mM Tris (pH 8.5), 1 mM EDTA, and 200 mg/L proteinase K, followed by phenol/chloroform/isoamyl alcohol extraction and sodium acetate precipitation. DNA precipitates were washed with 70% ethanol, dried, and dissolved in 20 μL of sterile water. The extracted DNA ([…], 1.2 μg) from the cells was added to […] of the reaction solution, containing PCR buffer (SuperRealPreMix, SYBR Green; Tiangen Biotech, Beijing, China) and primers pairs for mycoplasma detection and reference control (β-actin) with a final concentration of 0.12 μM for each primer, to a total volume of 10 μL. Quantitative real-time PCR (qPCR) was performed as the following profile: 95° C. for 1 min (preincubation), followed by 40 cycles at 95° C. for 10 s (denaturation), 60° C. for 30 s (annealing and elongation). The primers (Table 1) for mycoplasma detection were gifts from Prof. Zhongning Lin (School of Public Health, Xiamen University) including two forward primers for universal mycoplasmal detection, one forward primer to detect Myco M. pirum., one for Myco A. laidlawii. detection and a mix of degenerate primers to work as the reverse primers.

[5] = system: HONE1 cells; format: cell-based, human; conditions: 3 g/mL MXF
Procedure: as §1

[6] = system: SUNE1 cells; format: cell-based, human; conditions: 3 g/mL MXF
Procedure: as §1

[7] = system: CNE2; format: cell-based, human; conditions: 3 g/mL MXF
Procedure: as §1

[8] = system: Hep3B; experiment: Cell morphology and MTT cytotoxicity of agent alone; format: cell-based, human; conditions: 1 g/mL MXF
[9] = system: ABCC1; experiment: Immunofluorescence, subcellular location in HCC-97L cells; format: cell-based, human; conditions: HCC-97L cells treated with MXF for 7 days
[10] = system: HONE1; experiment: Cell morphology and MTT cytotoxicity of MXF alone; format: cell-based, human; conditions: 3 g/mL MXF
[11] = system: SUNE1; experiment: Cell morphology and MTT cytotoxicity of MXF alone; format: cell-based, human; conditions: 3 g/mL MXF
[12] = system: Hep3B cells; experiment: MTT assay, sensitivity to chemotherapeutic drugs with anti-mycoplasma antibiotics; format: cell-based, human; conditions: non-cytotoxic concentration of MXF or AZI; chemotherapeutic 48 h
Procedure: as §1

[13] = system: PLC/PRF/5 cell line; experiment: as above; format: cell-based, human; conditions: non-cytotoxic concentration of MXF or AZI; chemotherapeutic 48 h
Procedure: as §1

[14] = system: CNE1 cells; experiment: MTT assay, sensitivity to chemotherapeutic drugs with MXF; format: cell-based, human; conditions: 3 g/mL MXF
[15] = system: HCC97L cells; experiment: MTT assay, sensitivity to chemotherapeutic drugs with anti-mycoplasma agent or A2PP; format: cell-based, human; conditions: non-cytotoxic concentration of MXF or AZI; chemotherapeutic 48 h
Procedure: as §1

[16] = system: ABCC1; experiment: Western blot, ABC transporter expression in HCC-97L cells; format: cell-based, human; conditions: HCC-97L cells treated with MXF for 7 days

## COc1c(N2C[C@@H]3CCCN[C@@H]3C2)c(F)cc2c(=O)c(C(=O)O)cn(C3CC3)c12 [MXF, Moxifloxacin]
[1]
  toxicity to cells (cell morphology and MTT assay): non-toxic
[2]
  toxicity to cells (cell morphology and MTT assay): non-toxic
[3]
  toxicity to cells (cell morphology and MTT assay): non-toxic
[4]; CNE1 cells, 3 g/mL MXF, 7 days
  anti-mycoplasma effect (Real Time PCR): eradicated mycoplasma completely
[4]; CNE2 cells, 3 g/mL MXF, 7 days
  anti-mycoplasma effect (Real Time PCR): eradicated mycoplasma completely
[4]; HCC97L cells, 3 g/mL MXF
  anti-mycoplasma effect (Real Time PCR): eradicated mycoplasma completely
[4]; HONE1 cells, 3 g/mL MXF, 7 days
  anti-mycoplasma effect (Real Time PCR): eradicated mycoplasma completely
[4]; Hep3B cells, 1 g/mL MXF
  anti-mycoplasma effect (Real Time PCR): eradicated mycoplasma completely
[4]; PLC/PRF/5 cell line, 3 g/mL MXF
  anti-mycoplasma effect (Real Time PCR): mycoplasma remained intact
[4]; SUNE1 cells, 3 g/mL MXF, 7 days
  anti-mycoplasma effect (Real Time PCR): eradicated mycoplasma completely
[5]
  sensitivity of HONE1 cells to CDDP: enhanced
  sensitivity of HONE1 cells to MX: enhanced
[6]
  sensitivity of SUNE1 cells to MX: improved
[7]
  sensitivity of CNE2 cells to CDDP: enhanced
  sensitivity of CNE2 cells to MX: enhanced
[8]
  toxicity to cells (cell morphology and MTT assay): non-toxic
[9]
  distribution of ABCC1 on cell membrane: did not alter
[10]
  toxicity to cells (cell morphology and MTT assay): non-toxic
[11]
  toxicity to cells (cell morphology and MTT assay): non-toxic
[12]
  sensitivity of Hep3B cells to GEM: enhanced
  sensitivity of Hep3B cells to MX: enhanced
[13]
  efficacy of the anti-tumor drugs (CDDP, GEM, MX) in PLC/PRF/5 cell line: neither MXF nor AZI improved the efficacy
[14]
  sensitivity of CNE1 cells to CDDP: improved
  sensitivity of CNE1 cells to MX: improved
[15]
  sensitivity of HCC97L cells to CDDP: enhanced
  sensitivity of HCC97L cells to GEM: enhanced
  sensitivity of HCC97L cells to MX: enhanced
[16]
  protein quantity of ABCC1: no substantial change in protein quantity
